# Data as given in PubChem BioAssay AID686943 (Drosophila RNAi Screening Center, 2013)
# Aim: 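Search across the genome for regulators of signalling from receptor tyrosine kinase to ERK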 (primary screen)
# Cell system: Drosophila S2R+ haemocyte-like cells expressing YFP-tagged ERK (Rolled)
# Reagent: long dsRNA against Drosophila genes
# Treatment: insulin stimulation versus unstimulated cells; dose and duration not given
# Measured: 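Per-plate z-scores of phospho-ERK immunostaining normalised to YFP-tagged ERK, measured with and without insulin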
# Reading the numbers: replicate 1, z-score of dpERK with insulin and replicate 2, z-score of dpERK with insulin: higher = more active ERK per ERK-YFP after insulin; replicate 1, z-score of dpERK under basal conditions: higher = more basal active ERK per ERK-YFP; replicate 1, z-score of ERK-YFP with insulin: higher = more YFP-tagged ERK signal
# In all, the deposit lists about 23,000 reagents; shown is a random part of those with a known target gene and a result. 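Extra replicates exist only for a retested subset of genes; insulin dose and duration not given; both raised and lowered dpERK matter.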 Names joined by + are all predicted targets of the reagent. No sequences are given here. Not given: the amount of reagent, the time to read-out.
gene,amplicon,"replicate 1, z-score of dpERK with insulin","replicate 2, z-score of dpERK with insulin","replicate 1, z-score of dpERK under basal conditions","replicate 1, z-score of ERK-YFP with insulin"
Eig71Ed,DRSC11151,0.91,0.58,-0.08,0.05
Isha,DRSC04456,-0.04,0.27,-0.78,-0.61
p23,DRSC15158,-0.43,0.58,-1.22,-0.3
CG11007,DRSC06023,0.6,0.42,-0.73,0.1
CG33271,DRSC10583,-1.96,-1.82,1.29,-0.73
CG15423,DRSC00437,0.68,0.8,0.03,-1.07
CG8172,DRSC07089,0.1,0.22,0.17,-0.46
CG8172,DRSC22113,-0.22,0.26,-0.41,2.55
CG9010,DRSC07320,-0.35,0.3,1.4,0.44
sni,DRSC17770,0.51,0.86,0.5,0.7
CG16825,DRSC02526,-0.61,-0.56,2.47,0.43
CG14676,DRSC12262,1.33,1.57,0.59,-0.02
krimp,DRSC06578,0.44,0.05,-0.39,0.3
wry,DRSC00352,0.42,-0.07,-0.26,-0.48
wry,DRSC00456,0.98,0.61,1.4,0.66
wry,DRSC22414,0.92,0.26,-1.07,-0.7
mRpL33,DRSC18319,0.87,0.69,-0.94,0.5
Arp2,DRSC19332,-1.13,-1.81,-2.86,0.14
CG8861,DRSC12731,-1.31,0.43,-1.6,2.75
CG8861,DRSC16449,-0.34,0.6,0.5,0.21
Cyp318a1,DRSC19784,0.47,0.22,-0.65,0.07
CG5787,DRSC02895,1.64,0.65,-0.04,0.29
Chd64,DRSC08649,-0.09,-0.1,-1.09,-0.65
CG7203,DRSC03026,0.44,0.28,1.45,-0.72
VhaM9.7-c,DRSC08204,0.42,0.24,-0.24,0.08
Alg12,DRSC16416,-0.23,0.14,0.34,0.36
sna,DRSC03613,0.94,0.48,1.02,-0.3
CG1324,DRSC20496,1.19,-0.42,-0.81,-0.94
par-6,DRSC20359,-0.54,0.51,0.14,0.08
CG31219,DRSC15140,-0.3,0.01,0.86,0.39
CG30031 + deltaTry + CG30025 + 1 more,DRSC21262,-1.16,0.09,-0.4,0.82

Taken from above:
For “replicate 1, z-score of ERK-YFP with insulin”, sna [DRSC03613] is entered as -0.3
wry [DRSC22414], replicate 1, z-score of ERK-YFP with insulin = -0.7
Value of CG14676 [DRSC12262] under “replicate 1, z-score of ERK-YFP with insulin”: -0.02
Value of CG8172 [DRSC22113] in “replicate 1, z-score of ERK-YFP with insulin”: 2.55
Result of krimp [DRSC06578] under “replicate 1, z-score of dpERK with insulin”: 0.44
For “replicate 1, z-score of dpERK under basal conditions”, Chd64 [DRSC08649] has -1.09

Continued.
gene,amplicon,"replicate 1, z-score of dpERK with insulin","replicate 2, z-score of dpERK with insulin","replicate 1, z-score of dpERK under basal conditions","replicate 1, z-score of ERK-YFP with insulin"
SIDL,DRSC16077,-0.74,0.04,3.83,0.66
ear,DRSC15675,0.84,0.79,0.47,-0.75
CG13157,DRSC06282,-0.31,0.29,-0.39,-0.56
l(2)k05819,DRSC00826,0.51,0.18,0.08,0.19
CG10347,DRSC19352,0.89,0.69,1.32,0.08
CG1943,DRSC12576,1,-0.82,0.81,0.14
RpL14,DRSC11269,1.08,-3.02,,-4.95
Spn43Ab,DRSC06781,-0.48,0.11,-0.34,-0.12
Osi1,DRSC12271,0.48,0.44,0.85,1.02
Ent3,DRSC09822,-1.7,0.69,0.67,1.03
colt,DRSC00808,0.18,-0.13,-0.07,0.04
Octbeta2R,DRSC12917,1.44,0.7,0.74,0.45
Octbeta2R,DRSC15350,-1.97,-0.45,-1.22,2.33
Octbeta2R,DRSC16165,0.94,0.67,-0.15,-0.55
CG12506,DRSC00347,-0.82,-0.89,0.41,0.27
CG7084,DRSC16194,-0.19,0.68,-0.73,1.13
Reepl1,DRSC19418,1.15,0.46,0.05,0.29
zetaCOP,DRSC11412,0.27,1.01,-0.33,-1.22
CadN2,DRSC03062,0.62,0.44,-0.19,-0.49
CadN2,DRSC03063,0.84,-0.03,0.24,-0.14
CadN2,DRSC03064,0.6,0.12,0.7,-0.16
Sse,DRSC09746,0.1,0.85,-1.57,-2.27
CG2663,DRSC12314,0.69,1.75,0.74,0.47
CG13484,DRSC10026,-0.76,0.49,-0.85,-1.89
sona,DRSC04089,0.57,0.56,-0.36,-0.13
sona,DRSC04574,-0.37,-4.57,-1.52,0.6
sona,DRSC04575,-0.47,0.15,2.55,-4.1
